Results as given in the supplement of paper PMC12823440, “Inhibitors supercharge kinase turnover through native proteolytic circuits” (Nature, 2025).
Structures can show the parent of a compound that is named as a salt. This is one part of the list. The calls rarely recur for the same compound in another form.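 In K562 cells expressing nanoluciferase-fused kinases, luminescence was recorded at 4 h intervals between 2 and 18 h, normalized as percent of control with DMSO at 100% and a positive control at 0%. A significant (2 sigma) signal drop marks a time point as decreased. The authors' rule for a hit is not shown and takes in more than the number of time points.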

Molecular target: CDK2 (UniProt P24941)
Assay: number of time points (of 5) at which kinase-Nluc abundance scored as decreased, DMSO-normalised (count); higher = more persistent destabilization
Conditions: K562; 2-18 h

| SMILES | number of time points |
| --- | --- |
| O=C1NC(=O)C(c2cn(-c3ccccc3)nc2-c2ccc(F)cc2)N1 (centres undefined) (10 µM) | 0 |
| O=[N+]([O-])c1ccc(Sc2cccc[n+]2[O-])c2nonc12 (2.5 µM) | 0 |
| COc1nc(-c2ccnc(NC(=O)C3CC3)c2)sc1C(N)=O [GSK-3β inhibitor 2] (10 µM) | 0 |
| CCN1/C(=C/C(C)=O)Sc2ccc(OC)cc21 (10 µM) | 0 |
| Nc1cccc(S(=O)(=O)N2CCCN(S(=O)(=O)c3ccc4c(c3)OCCO4)CC2)c1 (10 µM) | 0 |
| Nc1ncc(-c2ccc(C(=O)N3CCNCC3)cc2)nc1-c1ccc(C(F)(F)F)cc1 (10 µM) | 0 |
| CC[C@H](Nc1ncnc2[nH]cnc12)c1oc2ccccc2c(=O)c1-c1cccc(F)c1 [Tenalisib] (10 µM) | 0 |
| CC(C)(O)[C@@H]1CC[C@](C)([C@H]2[C@@H](O)C[C@@]3(C)[C@@H]4C[C@H](O[C@@H]5O[C@H](CO)[C@@H](O)[C@H](O)[C@H]5O)[C@H]5C(C)(C)[C@@H](O[C@@H]6OC[C@@H](O)[C@H](O)[C@H]6O[C@@H]6O[C@H](CO)[C@@H](O)[C@H](O)[C@H]6O)CC[C@@]56C[C@@]46CC[C@]23C)O1 [Astragaloside VI] (10 µM) | 0 |
| CC(=O)Nc1nc2ccc(-c3cnc(C)c(NC(=O)OC4CCCCC4)c3)cc2s1 (10 µM) | 0 |
| COc1ccccc1/C=C1\C(=O)Nc2ccccc21 (10 µM) | 0 |
| CC1(N)CCN(c2cnc3c(-c4cccc(Cl)c4Cl)[nH]nc3n2)CC1 (2.5 µM) | 0 |
| CC(C)C[C@H](NC(=O)[C@H](CCCCN)NC(=O)[C@H](CO)NC(=O)[C@@H](N)CC(C)C)C(N)=O [LSKL, Inhibitor of Thrombospondin (TSP-1) (TFA)] (10 µM) | 0 |
| CN1CC[C@H](c2c(O)cc(O)c3c(=O)cc(-c4ccc(C(F)(F)F)cc4Cl)oc23)[C@H]1CO [(2S,3R)-Voruciclib (hydrochloride)] (2.5 µM) | 0 |
| C[C@H]1[C@H](OC(=O)CCC(=O)O)O[C@@H]2O[C@@]3(C)CC[C@H]4[C@H](C)CC[C@@H]1[C@@]24OO3 [Artesunate] (2.5 µM) | 0 |
| c1ccc(-c2nn3c(c2-c2ccnc4cc(OCCN5CCOCC5)ccc24)CCC3)nc1 (10 µM) | 0 |
| COc1cc(N2CCC(N(C)C)CC2)ccc1Nc1ncc(Cl)c(Nc2ccccc2P(C)(C)=O)n1 (2.5 µM) | 0 |
| Cc1ccc(-c2ncn(-c3ccc(Nc4nccc(-c5cccc(N6CCOCC6)c5)n4)cc3)n2)cn1 (10 µM) | 0 |
| CC[C@@H]1[C@H](F)C(=O)N[C@@H]1COc1nccc2cc(C(N)=O)c(OC)cc12 (10 µM) | 0 |
| O=C1NC(=O)/C(=C/c2ccc(-c3ccc(F)cc3O)o2)S1 (10 µM) | 0 |
| Cc1cc(Nc2cc(CN3CCOCC3)c3nc(C)c(Cc4ccc(Cl)cc4F)n3n2)n[nH]1 [Gandotinib] (2.5 µM) | 0 |

Three compounds out of the list, sorted by length of the SMILES, ascending:

| SMILES | number of time points |
| --- | --- |
| CC(=O)Nc1nc2ccc(-c3cnc(C)c(NC(=O)OC4CCCCC4)c3)cc2s1 (10 µM) | 0 |
| Nc1cccc(S(=O)(=O)N2CCCN(S(=O)(=O)c3ccc4c(c3)OCCO4)CC2)c1 (10 µM) | 0 |
| CC(C)(O)[C@@H]1CC[C@](C)([C@H]2[C@@H](O)C[C@@]3(C)[C@@H]4C[C@H](O[C@@H]5O[C@H](CO)[C@@H](O)[C@H](O)[C@H]5O)[C@H]5C(C)(C)[C@@H](O[C@@H]6OC[C@@H](O)[C@H](O)[C@H]6O[C@@H]6O[C@H](CO)[C@@H](O)[C@H](O)[C@H]6O)CC[C@@]56C[C@@]46CC[C@]23C)O1 [Astragaloside VI] (10 µM) | 0 |

(listing goes on)

| SMILES | number of time points |
| --- | --- |
| CN(C)C(=O)c1ccc(S(=O)(=O)c2ccc(NC(=O)[C@@](C)(O)C(F)(F)F)c(Cl)c2)cc1 (10 µM) | 0 |
| CCc1cccc(CC)c1NC(=O)c1nn(C)c2c1CCc1cnc(Nc3ccc(C(=O)NC4CCN(C)CC4)cc3OC(F)(F)F)nc1-2 (2 µM) | 0 |
| O=C(Nc1ccc(Cl)cc1)C1CCCN(C(=O)c2cccc(-c3ccco3)c2)C1 (centres undefined) (2.5 µM) | 0 |
| CN(C)Cc1cccc(N=C(c2ccccc2)c2c(O)[nH]c3cc(C(=O)N(C)C)ccc23)c1 (10 µM) | 0 |
| OCCN(CCO)c1ccc(C(c2ccc(Cl)cc2)c2ccc(N(CCO)CCO)cc2)cc1 (10 µM) | 0 |
| CCOc1ccccc1C=C1C(=O)Nc2ccccc21 (10 µM) | 0 |
| COc1ncc(Nc2ncc([C@@H](C)N3CCN(S(C)(=O)=O)CC3)cc2-c2nc(C)nc(N)n2)cc1F (10 µM) | 0 |
| O=C(CO)N1CCC(c2n[nH]c(-c3ccc(Cl)cc3)c2-c2ccncn2)CC1 (10 µM) | 0 |
| Cn1ncc(Cl)c1-c1cc(C(=O)N[C@H](CN)Cc2ccc(F)c(F)c2)sc1Cl (10 µM) | 0 |
| O=c1ccc2ccc(O)c(O)c2o1 [Daphnetin] (10 µM) | 0 |
| O=C(Nc1ccc(Cl)c(Cl)c1)Nc1ccc2nnsc2c1 (10 µM) | 0 |
| O=C(O)c1cc(O)c2c(c1)[C@@H]([C@H]1c3cc(C(=O)O)cc(O)c3C(=O)c3c(O[C@@H]4O[C@H](CO)[C@@H](O)[C@H](O)[C@H]4O)cccc31)c1cccc(O[C@@H]3O[C@H](CO)[C@@H](O)[C@H](O)[C@H]3O)c1C2=O [Sennoside B] (2.5 µM) | 0 |
| O=c1nc(N2CCOCC2)oc2c(-c3cccc4c3sc3ccccc34)cccc12 (10 µM) | 0 |
| O=C(Nc1cccc(-c2nncn2C2CC2)c1)c1cc(-n2cnc(C3CC3)c2)ccn1 (10 µM) | 0 |
| CSc1ccc(CN2CCCC(Nc3ccc4[nH]ncc4c3)C2)cc1 (centres undefined) [Rho-Kinase-IN-1] (10 µM) | 0 |
| Oc1ccccc1C(=S)N1CCCC1 (10 µM) | 0 |
| COC(=O)N[C@@H](C)CNc1nccc(-c2cn(C(C)C)nc2-c2cc(Cl)cc(NS(C)(=O)=O)c2F)n1 [Encorafenib] (10 µM) | 0 |
| C=CS(=O)(=O)c1ccc(Nc2nc(OCC3CCCCC3)c3[nH]cnc3n2)cc1 (2.5 µM) | 0 |
| O=c1[nH]ccc2cc(OC3CCNCC3)ccc12 (10 µM) | 0 |
